Test results taken from patent US9994525B2, “H3 antagonists containing phenoxypiperidine core structure” (RICHTER GEDEON NYRT., priority 2013, dated 2018).

Conditions: after either single or simultaneous administration of donepezil and Compound 11

Q: Which “plasma and brain levels” value does the source give for COc1cc2c(cc1OC)C(=O)C(CC1CCN(Cc3ccccc3)CC1)C2 (stereo not shown) [donepezil, reference compound] here?
A: did not change
